Results from patent US20210246187A1.
Results are given in words; binding and its absence hold for the method and conditions named. Some entries that bind do so weakly or less than the wild type. Tags and fused reporters may be left off the sequences shown.

What was measured:
[1] = molecular target: T1, BTNL3+BTNL8 co-expressed on HEK293T cells (Flag-BTNL3+HA-BTNL8) (human) (UniProt Q6UXE8+Q6UX41); assay: flow cytometry, transduced HEK293T cells stained with soluble His-tagged TCR then APC anti-His at 4° C.
T1 sequence (looked up) 1: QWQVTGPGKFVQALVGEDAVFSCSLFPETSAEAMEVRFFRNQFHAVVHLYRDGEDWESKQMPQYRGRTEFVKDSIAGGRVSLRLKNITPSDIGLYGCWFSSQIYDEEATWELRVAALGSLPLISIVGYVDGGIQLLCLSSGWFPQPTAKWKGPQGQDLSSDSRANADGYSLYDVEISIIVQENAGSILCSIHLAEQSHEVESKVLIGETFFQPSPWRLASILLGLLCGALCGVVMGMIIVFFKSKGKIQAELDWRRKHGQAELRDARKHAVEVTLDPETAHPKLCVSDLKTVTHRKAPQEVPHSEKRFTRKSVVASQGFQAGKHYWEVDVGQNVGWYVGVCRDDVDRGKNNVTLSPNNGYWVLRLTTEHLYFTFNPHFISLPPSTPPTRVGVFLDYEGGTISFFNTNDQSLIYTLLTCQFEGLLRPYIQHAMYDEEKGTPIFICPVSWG
T1 sequence (looked up) 2: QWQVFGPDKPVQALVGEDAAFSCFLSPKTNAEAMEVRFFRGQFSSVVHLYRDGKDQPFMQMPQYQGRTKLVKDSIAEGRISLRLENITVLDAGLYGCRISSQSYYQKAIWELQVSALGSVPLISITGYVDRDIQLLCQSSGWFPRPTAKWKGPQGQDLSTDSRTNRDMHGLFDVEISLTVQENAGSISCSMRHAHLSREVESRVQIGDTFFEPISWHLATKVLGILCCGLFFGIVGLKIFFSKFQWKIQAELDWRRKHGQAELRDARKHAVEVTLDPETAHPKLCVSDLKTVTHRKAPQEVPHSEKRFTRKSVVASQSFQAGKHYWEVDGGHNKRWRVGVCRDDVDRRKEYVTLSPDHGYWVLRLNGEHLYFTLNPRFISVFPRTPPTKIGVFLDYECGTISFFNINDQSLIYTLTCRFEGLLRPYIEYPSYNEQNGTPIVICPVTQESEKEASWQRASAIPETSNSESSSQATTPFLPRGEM

[2] = molecular target: T1, BTNL3+BTNL8 co-expressed on HEK293T cells (Flag-BTNL3+HA-BTNL8) (human); assay: staining of transduced cells with soluble TCR (FIG. 10 legend)
[3] = molecular target: T1, BTNL3+BTNL8 co-expressed on HEK293T cells (Flag-BTNL3+HA-BTNL8) (human); assay: recombinant TCR incubated with a cell line over-expressing BTNL3/8
[4] = molecular target: T1, BTNL3+BTNL8 co-expressed on HEK293T cells (Flag-BTNL3+HA-BTNL8) (human); assay: recombinant TCR experiments on BTNL3/8 over-expressing cells
[5] = molecular target: T1, BTNL3+BTNL8 co-expressed on HEK293T cells (Flag-BTNL3+HA-BTNL8) (human); assay: Image Cytometry of 293T.L3L8 cells incubated with soluble TCR pre-labeled with APC α-His antibody
[6] = molecular target: T1, BTNL3+BTNL8 co-expressed on HEK293T cells (Flag-BTNL3+HA-BTNL8) (human); assay: flow cytometry staining of HEK293T cells transduced with Flag-BTNL3+HA-BTNL8

Measured: binding

B1: Vγ4/Vδ2 soluble TCR heterodimer (TCR, V domains shown)
V domain 1: SSNLEGRTKSVIRQTGSSAEITCDLAEGSTGYIHWYLHQEGKAPQRLLYYDSYTSSVVLESGISPGKYDTYGSTRKNLRMILRNLIENDSGVYYCATWDEKYYKKLFGSGTTLVVTE
V domain 2: AIELVPEHQTVPVSIGVPATLRCSMKGEAIGNYYINWYRKTQGNTITFIYREKDIYGPGFKDNFQGDIDIAKNLAVLKILAPSERDEGSYYCALGESLTRADKLIFGKGTRVTVEP
binds: all assays above
